Assay results published in PubChem BioAssay AID445 (National Center for Advancing Translational Sciences (NCATS), 2006).
The list shows a part of the results. Shown are side measurements of this screen, not its main read-out; they come without a call. The list favours compounds with an active or inconclusive main result. Potencies come from curve fits of mixed quality, noted in brackets.

Assay: IkB Signaling
Settings: ABC-DLBCL IkBa-CBG/CBR dual luciferase ratio (green luciferase fused to IkBa over red control in OCI-Ly3 lymphoma cells), 4 h; measured here: control luc red channel unless noted
Summary of the method: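 Luminescence ratio of IκBα-fused green versus native red beetle luciferase in OCI-Ly3 cells, 4 h post-doxycycline with compound; red signal alone, scaled from basal (0%) to zero light (-100%), flagged nonspecific or cytotoxic effects.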
For `Cc1ccccc1Nc1nc(N)c(C(=O)c2ccccc2Cl)s1`, the AC50 was 6.31 µM [falling, partial curve]. With `CCCCc1ccc(NC(=O)CSc2nc(=O)[nH]c3c2CCCC3)cc1` the AC50 was 12.6 µM [falling, partial curve]. For `COc1ccc(Cl)cc1N(C)C(=O)CCc1nc(-c2ccc(C)cc2)no1`, the AC50 was 1 µM [falling, partial curve]. With `O=C(CSc1nc2c([nH]c3ccccc32)c(=O)n1-c1ccccc1F)Nc1cccc(C(F)(F)F)c1` the AC50 was 25.1 µM [falling, single point]. For `COc1cccc(N2CC(NC(=O)COc3ccccc3F)CC2=O)c1` (stereo not drawn), the AC50 was 6.31 µM [rising, single point]. With `COC(=O)CCN(c1ccccc1)C(CNS(=O)(=O)c1ccccc1)c1ccccc1` (stereo not drawn) the AC50 was 15.8 µM [falling, partial curve]. With `O=C(Nc1cccc(C(=O)OCc2cc(=O)n3nc(C4CC4)sc3n2)c1)c1cccc(Cl)c1` the AC50 was 0.501 µM [falling, full curve]. With `COc1ccc(-c2nnc(SC(C)C(=O)O)o2)cc1` (stereo not drawn) the AC50 was 15.8 µM [falling, partial curve]. In the case of `O=C(CN1C(=O)CSc2ccc(S(=O)(=O)N3CCCC3)cc21)NCc1ccccc1Cl`, the AC50 is reported as 25.1 µM [falling, single point]. In the case of `CC(=O)N1CCCc2cc(S(=O)(=O)N3CCCC(C(=O)NC(C)C)C3)ccc21` (stereo not drawn), the AC50 is reported as 0.0398 µM [falling, full curve, poor fit]. For `CCCCNC(=O)CCc1c(C)nc2cc(-c3ccccc3)nn2c1C`, the AC50 was 5.01 µM [falling, partial curve]. In the case of `CC(=O)c1cccc(NC(=O)C2CCCN(S(=O)(=O)c3cccc4cccnc34)C2)c1` (stereo not drawn), the AC50 is reported as 25.1 µM [falling, partial curve]. With `Cc1[nH]c2ccccc2c1C1(O)C(=O)N(Cc2ccccc2)c2ccc(Cl)cc21` (stereo not drawn) the AC50 was 20 µM [falling, partial curve]. In the case of `CCOc1ccc(C2c3c(oc4ccc(C)cc4c3=O)C(=O)N2CCCN(C)C)cc1OC` (stereo not drawn), the AC50 is reported as 6.31 µM [rising, single point]. With `CC(C)Oc1ccc(CNC(=O)c2sc3ncccc3c2-n2cccc2)cc1` the AC50 was 7.94 µM [falling, partial curve]. With `CCc1ccc2occ(CC(=O)Nc3ccc(OC)c(Cl)c3)c2c1` the AC50 was 20 µM [falling, partial curve]. With `O=C(CSc1cccc(C(F)(F)F)c1)NC(=O)NCc1ccco1` the AC50 was 12.6 µM [falling, partial curve]. With `COc1ccc(CN(Cc2ccco2)C(=O)COc2ccccc2OC)cc1` the AC50 was 39.8 µM [falling, single point]. For `CCc1ccccc1-n1cnc2cc(C(=O)NC3CCCCCC3)ccc21`, the AC50 was 31.6 µM [falling, partial curve]. With `O=C(Nc1ccccc1Cl)[C@H](CSCc1ccccc1)N1Cc2ccccc2C1=O` the AC50 was 31.6 µM [falling, single point]. With `O=C(c1ccc2c(c1)CCN2S(=O)(=O)c1ccccc1)N1CCN(c2ccccc2F)CC1` the AC50 was 25.1 µM [falling, single point]. In the case of `COc1ccccc1NC(=O)CSc1nnc(-c2ccc(C)cc2)o1`, the AC50 is reported as 3.98 µM [falling, partial curve]. In the case of `COc1ccc(-c2ccc(NS(=O)(=O)c3cc(C)c(C)cc3C)cc2)nn1`, the AC50 is reported as 20 µM [falling, partial curve]. For `CCn1nc(C)c2c(-c3ccccc3)cc(=O)n(C(C)C(=O)Nc3cc(C)ccc3C)c21` (stereo not drawn), the AC50 was 3.98 µM [rising, partial curve]. For `Clc1ccc(CCNC(c2ccc(Cl)cc2)c2nnc(-c3ccccc3)o2)cc1` (stereo not drawn), the AC50 was 0.631 µM [falling, full curve]. With `Cc1ccc2[nH]c(=O)c(CN(CCCN3CCOCC3)C(=O)Nc3cccc(Cl)c3)cc2c1` the AC50 was 25.1 µM [falling, partial curve]. With `CCCCOc1ccc(C(=O)Nc2cccc(C)n2)cc1` the AC50 was 12.6 µM [falling, partial curve]. In the case of `CCOC(=O)c1c(S(=O)(=O)N2CCCC(C(=O)N3CCN(c4cc(C)ccc4C)CC3)C2)c(C)n(C)c1C` (stereo not drawn), the AC50 is reported as 25.1 µM [falling, partial curve]. With `Cc1cc(C)cc(OCCSc2nc3ccc(NC(=O)COc4ccccc4)cc3s2)c1` the AC50 was 3.98 µM [falling, partial curve]. In the case of `CCCc1cc(C(=O)NCCc2ccccc2)no1`, the AC50 is reported as 5.01 µM [falling, partial curve]. With `Cc1ccc(OCC(=O)Nc2nonc2-c2ccc(Br)cc2)cc1C` the AC50 was 0.126 µM [rising, full curve]. In the case of `Cc1ccccc1Cn1c(SCc2ccc(C(=O)N3CCCCC3)cc2)nc2ccncc21`, the AC50 is reported as 31.6 µM [falling, partial curve]. For `CCCOc1ccc(OC(=O)c2ccc(-c3ccc(CCC)cn3)cc2)cc1`, the AC50 was 0.631 µM [falling, full curve]. In the case of `CC1CCc2c(sc3nc(SCC(=O)NCc4ccco4)nc(N)c23)C1` (stereo not drawn), the AC50 is reported as 7.94 µM [falling, partial curve]. In the case of `COc1ccc(CCNC(=O)c2cc(Nc3ccccc3)nc3ccccc23)cc1OC`, the AC50 is reported as 20 µM [falling, partial curve]. In the case of `O=C(Nc1ccc(S(=O)(=O)N(Cc2ccccc2)c2ccccc2)cc1)c1ccccc1F`, the AC50 is reported as 25.1 µM [falling, partial curve, poor fit]. For `CCCn1ccc2c(OCC(=O)Nc3ccccc3C(=O)OCC)cccc2c1=O`, the AC50 was 2.51 µM [falling, partial curve]. With `O=C(Nc1ccccc1C(=O)NCc1ccccc1)c1ccco1` the AC50 was 15.8 µM [falling, partial curve]. In the case of `COC(=O)c1ccccc1NC(=O)CCCn1c(C)c2cnn(-c3ccccc3)c(=O)c2c1C`, the AC50 is reported as 12.6 µM [falling, partial curve]. For `Oc1ccccc1-c1nc2cnccn2c1Nc1ccc(Cl)cc1`, the AC50 was 10 µM [falling, partial curve]. For `COc1ccc(CNC(=O)CN2C(=O)COc3ccccc32)c(OC)c1`, the AC50 was 6.31 µM [falling, partial curve]. In the case of `Cc1ccc2nc(NC(=O)CSc3cc(C)[nH]c(=O)n3)sc2c1`, the AC50 is reported as 25.1 µM [falling, single point]. For `COc1ccc(-c2nn3c(-c4ccccc4)nnc3c3ccccc23)cc1`, the AC50 was 39.8 µM [falling, single point]. In the case of `Cc1ccc(C)c(-n2nnnc2SCC(=O)Nc2cccc(-c3nnc4n3CCCCC4)c2)c1`, the AC50 is reported as 31.6 µM [falling, partial curve]. With `Cc1nn(Cc2ccc(Cl)c(Cl)c2)c(C)c1NC(=O)c1cc(-c2ccc3c(c2)OCO3)on1` the AC50 was 1.58 µM [falling, full curve, poor fit]. In the case of `Cc1cccc(N2CCN(C(=O)Cn3c(C)c4cnn(-c5ccccc5)c(=O)c4c3C)CC2)c1C`, the AC50 is reported as 39.8 µM [falling, single point]. For `Cc1ccc(N2C(=O)[C@@H]3[C@H](C2=O)C2c4ccccc4C=CN2[C@@H]3C(=O)c2ccco2)c(C)c1` (stereo partly drawn), the AC50 was 3.16 µM [falling, full curve, poor fit]. For `CCOC(=O)C1CCCN(C(=O)Cn2ncc3c(C)n(Cc4ccc(Cl)cc4)c(C)c3c2=O)C1` (stereo not drawn), the AC50 was 15.8 µM [falling, partial curve]. In the case of `Cc1ccc(NS(=O)(=O)c2ccc3c(c2)CCN3C(=O)C2CC2)c(C)c1`, the AC50 is reported as 12.6 µM [falling, partial curve]. For `C=C(C)Cn1c(SCC(=O)c2ccc(Br)cc2)nc2sc3c(c2c1=O)CCCC3`, the AC50 was 7.94 µM [falling, full curve, poor fit]. In the case of `CC(=O)c1c(C(C)=O)c(C)n(NC(=O)c2cccnc2)c1C`, the AC50 is reported as 12.6 µM [falling, partial curve]. With `Cc1ccc(S(=O)(=O)c2nc(-c3cccs3)oc2SCc2ccc(F)cc2)cc1` the AC50 was 5.01 µM [falling, single point]. For `CC(C)c1ccccc1NC(=O)C(Cc1c[nH]c2ccccc12)NC(=O)OC(C)(C)C` (stereo not drawn), the AC50 was 20 µM [falling, single point]. In the case of `Cc1cccc(Nc2nnc(SCc3cn4ccsc4n3)s2)c1`, the AC50 is reported as 39.8 µM [falling, single point]. For `CCOC(=O)c1ccc(Nc2c(-c3ccc(OC)cc3)nc3nc[nH]n23)cc1`, the AC50 was 5.01 µM [falling, partial curve]. For `CCOc1ccc(S(=O)(=O)Nc2ccc3c(c2)CCCN3C(=O)c2cccs2)cc1`, the AC50 was 15.8 µM [falling, partial curve, poor fit]. In the case of `O=C(Cc1ccc(NC(=O)N2CCCCc3ccccc32)cc1)NCc1cccc(Br)c1`, the AC50 is reported as 31.6 µM [falling, single point]. In the case of `COc1ccc(C(=O)Nc2cccc(OC)c2)cc1`, the AC50 is reported as 10 µM [falling, partial curve]. For `CC1=C(c2ccc(C)c(C)c2)S(=O)(=O)N=C1N1CCC(C(=O)NCc2ccc(N(C)C)cc2)CC1`, the AC50 was 1.58 µM [falling, partial curve]. In the case of `COc1ccccc1NC(=O)N1CCN(c2nnc(C)c3c(C)n(-c4ccccc4)nc23)CC1`, the AC50 is reported as 0.1 µM [rising, full curve]. For `Cc1noc(C)c1-c1ccc2ncnc(NCc3cccs3)c2c1`, the AC50 was 1 µM [rising, partial curve] [measured here: IkB-luc green channel]. For `O=c1c2oc3ccccc3c2n(Cc2ccccc2F)c(=O)n1Cc1ccc2c(c1)OCO2`, the AC50 was 1 µM [falling, partial curve]. For `CCN(CC)S(=O)(=O)c1ccc(NC(=O)c2c(C)oc3ncnc(N4CCCCC4)c23)cc1`, the AC50 was 0.0126 µM [falling, full curve, poor fit].
